We go through ten molecules from publication PMC9997570.

The chains behind the UniProt entries cited, without tags or fusion partners. Residues count along the entry.
UniProt Q9NBK5: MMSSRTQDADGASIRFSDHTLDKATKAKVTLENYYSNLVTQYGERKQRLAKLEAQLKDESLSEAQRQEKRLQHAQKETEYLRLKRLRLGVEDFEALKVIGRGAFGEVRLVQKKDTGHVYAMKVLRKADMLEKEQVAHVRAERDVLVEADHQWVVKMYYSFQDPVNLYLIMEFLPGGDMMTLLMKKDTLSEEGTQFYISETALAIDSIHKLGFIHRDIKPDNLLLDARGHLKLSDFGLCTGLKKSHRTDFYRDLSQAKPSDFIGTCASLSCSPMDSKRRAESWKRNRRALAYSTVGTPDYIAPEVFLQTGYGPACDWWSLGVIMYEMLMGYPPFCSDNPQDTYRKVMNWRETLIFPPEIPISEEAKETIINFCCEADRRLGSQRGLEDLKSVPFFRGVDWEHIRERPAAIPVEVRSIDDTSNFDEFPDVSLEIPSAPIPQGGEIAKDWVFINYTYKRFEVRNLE
UniProt Q05825, residues 32-505: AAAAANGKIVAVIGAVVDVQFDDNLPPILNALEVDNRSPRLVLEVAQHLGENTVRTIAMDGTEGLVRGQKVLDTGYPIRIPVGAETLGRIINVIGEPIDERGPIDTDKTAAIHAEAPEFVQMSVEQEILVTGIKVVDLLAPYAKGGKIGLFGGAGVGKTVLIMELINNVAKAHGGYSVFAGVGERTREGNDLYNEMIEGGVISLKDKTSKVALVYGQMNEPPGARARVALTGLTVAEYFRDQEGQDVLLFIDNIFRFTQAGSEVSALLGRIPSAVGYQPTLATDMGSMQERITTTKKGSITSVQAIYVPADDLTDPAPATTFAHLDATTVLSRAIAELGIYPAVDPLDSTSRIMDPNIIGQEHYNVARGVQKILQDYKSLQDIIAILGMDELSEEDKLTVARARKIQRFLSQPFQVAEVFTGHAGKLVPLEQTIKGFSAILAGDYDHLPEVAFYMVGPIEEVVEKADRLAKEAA
UniProt Q9VT28: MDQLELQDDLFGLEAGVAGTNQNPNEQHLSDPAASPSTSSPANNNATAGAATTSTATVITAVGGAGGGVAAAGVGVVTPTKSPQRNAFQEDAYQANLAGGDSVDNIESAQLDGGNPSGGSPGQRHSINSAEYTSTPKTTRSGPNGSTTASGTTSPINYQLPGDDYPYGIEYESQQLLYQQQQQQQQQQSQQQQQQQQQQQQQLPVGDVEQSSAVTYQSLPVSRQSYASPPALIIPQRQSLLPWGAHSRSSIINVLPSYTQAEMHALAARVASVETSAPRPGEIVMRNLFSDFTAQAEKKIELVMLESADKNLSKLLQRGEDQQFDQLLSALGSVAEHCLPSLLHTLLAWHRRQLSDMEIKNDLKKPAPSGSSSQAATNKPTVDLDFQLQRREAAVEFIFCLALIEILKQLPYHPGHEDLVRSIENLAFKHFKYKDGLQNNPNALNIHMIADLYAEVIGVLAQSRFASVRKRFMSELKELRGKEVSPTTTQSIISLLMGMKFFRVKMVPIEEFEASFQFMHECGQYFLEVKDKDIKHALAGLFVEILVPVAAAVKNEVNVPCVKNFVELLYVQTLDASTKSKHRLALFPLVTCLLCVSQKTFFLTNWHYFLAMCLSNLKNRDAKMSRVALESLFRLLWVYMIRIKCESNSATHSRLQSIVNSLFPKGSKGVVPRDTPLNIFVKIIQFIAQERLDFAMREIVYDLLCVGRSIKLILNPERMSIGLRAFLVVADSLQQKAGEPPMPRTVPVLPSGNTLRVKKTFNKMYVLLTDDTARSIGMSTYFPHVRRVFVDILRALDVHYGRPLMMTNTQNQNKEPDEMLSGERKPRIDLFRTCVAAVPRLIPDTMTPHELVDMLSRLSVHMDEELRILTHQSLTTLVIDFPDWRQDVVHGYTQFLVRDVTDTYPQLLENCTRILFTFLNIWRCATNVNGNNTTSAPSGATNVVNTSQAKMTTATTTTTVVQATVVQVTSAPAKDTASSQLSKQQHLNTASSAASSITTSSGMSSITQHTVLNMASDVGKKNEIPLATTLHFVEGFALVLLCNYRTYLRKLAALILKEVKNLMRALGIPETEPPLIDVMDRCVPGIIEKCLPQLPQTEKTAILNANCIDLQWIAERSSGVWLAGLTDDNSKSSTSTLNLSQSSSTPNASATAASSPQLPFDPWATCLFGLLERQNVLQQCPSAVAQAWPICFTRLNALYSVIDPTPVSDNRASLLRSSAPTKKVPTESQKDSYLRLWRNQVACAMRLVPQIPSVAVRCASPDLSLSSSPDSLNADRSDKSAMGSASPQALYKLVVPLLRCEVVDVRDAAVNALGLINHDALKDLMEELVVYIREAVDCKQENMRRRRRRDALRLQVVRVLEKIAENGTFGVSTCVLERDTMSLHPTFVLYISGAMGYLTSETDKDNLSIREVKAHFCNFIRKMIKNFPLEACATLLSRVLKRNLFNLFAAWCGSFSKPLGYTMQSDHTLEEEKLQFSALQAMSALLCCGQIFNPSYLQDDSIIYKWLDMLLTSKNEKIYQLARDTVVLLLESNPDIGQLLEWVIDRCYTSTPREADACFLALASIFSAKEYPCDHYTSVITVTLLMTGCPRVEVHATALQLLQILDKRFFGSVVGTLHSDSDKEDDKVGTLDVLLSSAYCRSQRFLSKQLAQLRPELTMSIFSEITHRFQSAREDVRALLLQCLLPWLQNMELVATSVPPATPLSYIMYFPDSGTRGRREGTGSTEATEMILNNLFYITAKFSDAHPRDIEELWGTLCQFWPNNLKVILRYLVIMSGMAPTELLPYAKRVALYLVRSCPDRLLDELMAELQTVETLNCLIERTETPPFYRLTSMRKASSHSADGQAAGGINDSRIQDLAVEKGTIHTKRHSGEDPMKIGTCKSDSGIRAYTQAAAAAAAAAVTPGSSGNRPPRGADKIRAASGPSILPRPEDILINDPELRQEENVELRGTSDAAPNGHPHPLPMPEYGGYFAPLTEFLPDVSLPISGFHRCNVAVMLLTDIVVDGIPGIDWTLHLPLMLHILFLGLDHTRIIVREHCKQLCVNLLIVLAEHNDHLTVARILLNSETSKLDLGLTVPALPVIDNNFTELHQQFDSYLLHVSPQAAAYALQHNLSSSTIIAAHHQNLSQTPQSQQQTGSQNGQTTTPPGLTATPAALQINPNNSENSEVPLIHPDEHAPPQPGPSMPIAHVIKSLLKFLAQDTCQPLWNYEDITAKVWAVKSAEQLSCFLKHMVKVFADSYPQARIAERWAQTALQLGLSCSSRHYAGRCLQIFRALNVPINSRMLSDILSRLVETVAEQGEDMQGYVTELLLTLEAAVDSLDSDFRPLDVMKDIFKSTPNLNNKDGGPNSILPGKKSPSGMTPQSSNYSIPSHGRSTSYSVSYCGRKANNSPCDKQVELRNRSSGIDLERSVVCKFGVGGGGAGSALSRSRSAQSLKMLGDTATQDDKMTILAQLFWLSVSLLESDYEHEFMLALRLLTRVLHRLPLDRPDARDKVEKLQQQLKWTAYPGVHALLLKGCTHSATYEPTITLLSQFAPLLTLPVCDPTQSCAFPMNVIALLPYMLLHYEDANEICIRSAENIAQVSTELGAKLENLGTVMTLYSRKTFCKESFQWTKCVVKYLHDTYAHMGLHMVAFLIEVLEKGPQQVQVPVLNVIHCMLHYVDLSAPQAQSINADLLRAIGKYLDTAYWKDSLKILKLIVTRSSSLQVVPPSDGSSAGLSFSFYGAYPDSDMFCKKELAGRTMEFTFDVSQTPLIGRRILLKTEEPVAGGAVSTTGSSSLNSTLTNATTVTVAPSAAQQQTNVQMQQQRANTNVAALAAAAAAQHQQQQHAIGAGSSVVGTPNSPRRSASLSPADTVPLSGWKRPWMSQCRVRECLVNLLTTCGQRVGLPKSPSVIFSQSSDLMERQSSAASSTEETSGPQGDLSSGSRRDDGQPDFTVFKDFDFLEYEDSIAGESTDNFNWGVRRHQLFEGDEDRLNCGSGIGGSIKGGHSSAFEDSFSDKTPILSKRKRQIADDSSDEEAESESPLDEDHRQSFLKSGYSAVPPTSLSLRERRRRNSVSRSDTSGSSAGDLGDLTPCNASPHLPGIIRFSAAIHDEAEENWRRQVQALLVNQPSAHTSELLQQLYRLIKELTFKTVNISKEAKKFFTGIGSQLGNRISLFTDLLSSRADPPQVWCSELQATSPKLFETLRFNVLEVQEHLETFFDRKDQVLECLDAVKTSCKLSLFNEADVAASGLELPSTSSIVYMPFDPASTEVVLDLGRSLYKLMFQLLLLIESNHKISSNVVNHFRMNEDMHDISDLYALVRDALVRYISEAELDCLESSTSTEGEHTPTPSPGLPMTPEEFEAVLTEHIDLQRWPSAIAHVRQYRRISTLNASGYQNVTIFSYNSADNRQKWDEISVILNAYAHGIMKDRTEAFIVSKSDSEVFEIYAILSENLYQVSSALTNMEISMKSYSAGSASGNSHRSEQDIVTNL
UniProt P35381, residues 48-552: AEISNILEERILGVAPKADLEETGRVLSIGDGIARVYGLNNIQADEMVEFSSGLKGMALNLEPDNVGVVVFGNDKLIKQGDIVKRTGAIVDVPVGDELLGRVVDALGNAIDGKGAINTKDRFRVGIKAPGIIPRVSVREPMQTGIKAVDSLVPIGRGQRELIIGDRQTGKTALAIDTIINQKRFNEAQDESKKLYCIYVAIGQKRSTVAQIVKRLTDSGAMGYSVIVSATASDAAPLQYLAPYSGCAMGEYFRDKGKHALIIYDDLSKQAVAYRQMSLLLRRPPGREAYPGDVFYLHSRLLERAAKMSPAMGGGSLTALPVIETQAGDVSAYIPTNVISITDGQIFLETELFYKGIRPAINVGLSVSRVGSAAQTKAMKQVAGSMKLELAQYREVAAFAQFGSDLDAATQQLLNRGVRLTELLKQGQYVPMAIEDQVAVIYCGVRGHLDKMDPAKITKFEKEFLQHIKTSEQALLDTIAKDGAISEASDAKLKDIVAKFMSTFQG

Experiment [1] has as its target Tricornered (Trc) kinase, Trc-GFP fusion protein (Drosophila melanogaster) (UniProt Q9NBK5). The experiment is described as follows: affinity purification with mass spectrometry; Trc-GFP complexes purified from lysates of 0–16 hr embryos (da-GAL4 x UAS-Trc-GFP), nanoLC-MS/MS; two biological replicates compared with two GFP-alone controls using SAINT.
For experiment [2] the target is unchanged. The experiment is described as above. This is another data set of the same source.

Like-named read-outs stand apart in the source and are kept apart here. No constants are given. Whether binding was seen depends on the method and setting. Binding seen in cells or lysates may run through a third protein. These calls come from enrichment with a bait or labelling near it, and not all partners need be listed. For some of these results: No binding means not detected with the bait.

Consider “ATP synthase-beta (ATPsyn-beta, the ATP synthase-beta subunit) (from UniProt Q05825 32-505)”, for which, in experiment [1], the binding result is on record as “binds”.
Consider “Furry (Fry) (from UniProt Q9VT28 1-3479)”, for which, in experiment [1], the binding result was “binds”.
With “Bellwether (Blw, the ATP synthase alpha subunit) (from UniProt P35381 48-552)”, the binding result in experiment [1] was “binds”.

B1: Mob4 (protein, UniProt Q7K0E3 1-223)
chain: MKMADGSTILRRNRPGTKSKDFCRWPDEPLEEMDSTLAVQQYIQQLIKRDPSNVELILTMPEAQDEGVWKYEHLRQFCMELNGLAVRLQKECSPSTCTQMTATDQWIFLCAAHKTPKECPAIDYTRHTLDGAACLLNSNKYFPSRVSIKESSVTKLGSVCRRVYRIFSHAYFHHRRIFDEFEAETYLCHRFTHFVTKYNLMSKENLIVPINVGENAAPGESEA
B1: the binding result in experiment [2] is “binds”.

B2: Mouse protein 25 (Mo25) (protein, UniProt P91891 1-339)
chain: MPLFGKSQKSPVELVKSLKEAINALEAGDRKVEKAQEDVSKNLVSIKNMLYGSSDAEPPADYVVAQLSQELYNSNLLLLLIQNLHRIDFEGKKHVALIFNNVLRRQIGTRSPTVEYICTKPEILFTLMAGYEDAHPEIALNSGTMLRECARYEALAKIMLHSDEFFKFFRYVEVSTFDIASDAFSTFKELLTRHKLLCAEFLDANYDKFFSQHYQRLLNSENYVTRRQSLKLLGELLLDRHNFTVMTRYISEPENLKLMMNMLKEKSRNIQFEAFHVFKVFVANPNKPKPILDILLRNQTKLVDFLTNFHTDRSEDEQFNDEKAYLIKQIKELKPLPEA
Take B2: the binding result in experiment [2] is given as “binds”.

B3: Mob2 (protein, UniProt Q8IQG1 1-566)
chain: MNWAISNLTGGNRVSRAILVRYSSVPLADATNDGSSTAPQTPTASTPRPSSSHSSLSSTFAATFLHASSRHIPGRAVPRQNANGQNGGKGNASGAGGGAGGGGAGGASGGTGGTGAQAAGQLSLPLDVEETVTCFCRKARRKERDGDQNSTDTKLYLEESVLERKLPEADLKALVDLPAGLDYNEWLASHTLALFEHVNLVYGTISEFCTQSGCADMTGPGNRTYLWFDEKGKKTRVAAPQYIDYVMTFTQKTVSDESIFPTKYANEFPGSFESIARKILRLQFHVIAHLYAAHFREIALLGLHTHLNLTFAHLTALHRRFNLIDEKETDVLRDLEVALRLTDDTGGCQDATSTTSSVHDHSHSGDLQHQSLQQQQQHHNSSSNSTSSAEAFHVNSQSNNGSTSASASVSLIDGDAVAPPICTQPEAGAGCKPAGSSGLLGGILGDLTSGEFGDTTRYCTSAVPQAAAAAGAGVGGTAIGATDAAALNNGAGALHLNFSNNNNNNHNLNHHHHHHHHHGHHGHHHAAQQQQQHSGLIQCNAAGGGGNATGVATGGATAAASSTTTA
For the molecule B3, the binding entry in experiment [2] was “binds”.

B4: Mob3 (protein, UniProt Q9VL13 1-220)
chain: MALNGFLEFFQKGKTFRPKKPFASGTIRYSLHKQAQASLQSGINLRQVVRLPQGENLNDWLAVHVVDFFNRINLIYGTVSEFCNETTCPTMSGGSRYEYLWADGDLYKKPTALSAQKYIEHLMDWIETQINNEAVFPVSTDVPFPKNFIAISRKILTRLFRVFVHVYIHHFDRIVSIGAEAHVNACYKHFYYFVQEFDMISAKELEPLQEMTSRICKDKD
Regarding B4, the binding result in experiment [2] is listed as “no binding”.

B5: Mats (protein, UniProt Q95RA8 1-219)
chain: MDFLFGSRSSKTFKPKKNIPEGTHQYDLMKHAAATLGSGNLRNAVALPDGEDLNEWVAVNTVDFFNQINMLYGTITEFCTEETCGIMSAGPKYEYHWADGLTVKKPIKCSAPKYIDYLMTWVQDQLDDETLFPSKIGVPFPKNFHSSAKTILKRLFRVYAHIYHQHFTEVVTLGEEAHLNTSFKHFIFFVQEFNLIERRELAPLQELIDKLTAKDERQI
Regarding B5, the binding entry in experiment [2] is “binds”.

B6: NADH dehydrogenase (ubiquinone) 75 kDa (ND75) (protein, UniProt Q94511 28-731)
chain: SAMVAQTPAKAPEKIEVFVDDIPVQVVPGTTVLQAAAQIGVEIPRFCYHERLAVAGNCRMCLVEVEKSPKPVAACAMPVMKGWRIKTNSDLTRKAREGVMEFLLMNHPLDCPICDQGGECDLQDQAMAFGSDRSRFTDINYTGKRAVEDKDIGPLVKTIMTRCIHCTRCVRFASEIAGVDDLGTTGRGNDMQIGTYVEKLFLTELSGNVIDLCPVGALTNKPYSFVARPWEIRKVSSIDVLDAVGSNIVVSTRTNEVLRILPRENEDVNEEWLADKSRFACDGLKRQRLVAPMVRMPNGELQAVEWEGALIAVAKAIKAAGGQIAGISGQLADLEAQVALKDLLNRLGSEVVATEQGFIAGGTDNRANYLLNSTIAGLEEADAVLLVGTNPRYEAPLVNTRLRKAYVHNELQIASIGPKIDLSYDHENLGADAALVKDVCSGAHAFSKVLEGAKKPAIIIGADLLERADGAAIHATVAEYCKKLKKPNWNPFNVLQTNAAQVGALDVGYKAGAQTAVKAQPKVLFLLNADAGKVTREQLPKDCFVVYIGSHGDNGASIADAVLPGAAYTEKQGIYVNTEGRPQQTLPGVSPPGMAREDWKILRALSEVVGKPLPYDNLDELRNRLEDVAPHLTRLGQLEPAGDAGAAGTISKSIGGGAIDIKLKELRDYFMTDAISRASPTMAKCISAVNKQQRENEAKQSVAI
As for B6, the binding entry in experiment [2] was “binds”.

B7: Phosphofructokinase (Pfk) (enzyme, UniProt P52034 1-788)
chain: MNSEINQRFLARGSQKDKGLAVFTSGGDSQGMNAAVRACVRMAIYLGCKVYFIREGYQGMVDGGDCIQEANWASVSSIIHRGGTIIGSARCQDFRERQGRLKAANNLIQRGITNLVVIGGDGSLTGANLFRQEWSSLLDELVKNKTITTEQQEKFNVLHIVGLVGSIDNDFCGTDMTIGTDTALHRIIEAIDAISSTAYSHQRTFIMEVMGRHCGYLALVGGLACEADFIFIPEMPPKVDWPDRLCSQLAQERSAGQRLNIVIVAEGAMDREGHPITAEDVKKVIDERLKHDARITVLGHVQRGGNPSAFDRILACRMGAEATLALMEATKDSVPVVISLDGNQAVRVPLMECVERTQAVAKAMAEKRWADAVKLRGRSFERNLETYKMLTRLKPPKENFDADGKGIEGYRLAVMHIGAPACGMNAAVRSFVRNAIYRGDVVYGINDGVEGLIAGNVRELGWSDVSGWVGQGGAYLGTKRTLPEGKFKEIAARLKEFKIQGLLIIGGFESYHAAGQIADQRDNYPQFCIPIVVIPSTISNNVPGTEFSLGCDTGLNEITEICDRIRQSAQGTKRRVFVIETMGGYCGYLATLAGLAGGADAAYIYEEKFSIKDLQQDVYHMASKMAEGVSRGLILRNEKASENYSTDFIYRLYSEEGKGLFTCRMNILGHMQQGGSPTPFDRNMGTKMAAKCVDWLAAQIKANIDANGVVNCKSPDTATLLGIVSRQYRFSPLVDLIAETNFDQRIPKKQWWLRLRPLLRILAKHDSAYEEEGMYITVEEECDTDAVA
Take B7: the binding entry in experiment [2] is “binds”.
